Results reported in the supplement of paper PMC11732987, “Enantioselective OTUD7B fragment discovery through chemoproteomics screening and high-throughput optimisation” (Communications Chemistry, 2025).
The list shows a part of the results. The data scatter; read single values as rough.

Chains of the proteins cited; added tags and fusions are not shown. Lines headed by an entry give the natural chain unless they say otherwise; changes in a name come on top. Residues count along the entry.
UniProt Q69YN2: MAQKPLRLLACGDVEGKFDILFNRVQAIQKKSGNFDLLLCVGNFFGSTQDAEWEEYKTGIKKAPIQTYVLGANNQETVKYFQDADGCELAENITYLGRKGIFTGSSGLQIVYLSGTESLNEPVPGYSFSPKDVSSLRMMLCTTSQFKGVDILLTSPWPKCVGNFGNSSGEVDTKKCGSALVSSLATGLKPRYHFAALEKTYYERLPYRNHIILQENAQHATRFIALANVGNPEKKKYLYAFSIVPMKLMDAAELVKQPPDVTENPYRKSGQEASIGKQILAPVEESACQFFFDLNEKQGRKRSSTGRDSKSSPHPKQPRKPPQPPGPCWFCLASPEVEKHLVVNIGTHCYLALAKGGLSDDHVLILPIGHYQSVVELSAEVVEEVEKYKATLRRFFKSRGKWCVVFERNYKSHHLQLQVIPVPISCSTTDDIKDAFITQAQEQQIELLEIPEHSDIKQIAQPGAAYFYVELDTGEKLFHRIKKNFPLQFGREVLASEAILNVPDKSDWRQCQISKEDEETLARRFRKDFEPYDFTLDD
UniProt Q9H0L4: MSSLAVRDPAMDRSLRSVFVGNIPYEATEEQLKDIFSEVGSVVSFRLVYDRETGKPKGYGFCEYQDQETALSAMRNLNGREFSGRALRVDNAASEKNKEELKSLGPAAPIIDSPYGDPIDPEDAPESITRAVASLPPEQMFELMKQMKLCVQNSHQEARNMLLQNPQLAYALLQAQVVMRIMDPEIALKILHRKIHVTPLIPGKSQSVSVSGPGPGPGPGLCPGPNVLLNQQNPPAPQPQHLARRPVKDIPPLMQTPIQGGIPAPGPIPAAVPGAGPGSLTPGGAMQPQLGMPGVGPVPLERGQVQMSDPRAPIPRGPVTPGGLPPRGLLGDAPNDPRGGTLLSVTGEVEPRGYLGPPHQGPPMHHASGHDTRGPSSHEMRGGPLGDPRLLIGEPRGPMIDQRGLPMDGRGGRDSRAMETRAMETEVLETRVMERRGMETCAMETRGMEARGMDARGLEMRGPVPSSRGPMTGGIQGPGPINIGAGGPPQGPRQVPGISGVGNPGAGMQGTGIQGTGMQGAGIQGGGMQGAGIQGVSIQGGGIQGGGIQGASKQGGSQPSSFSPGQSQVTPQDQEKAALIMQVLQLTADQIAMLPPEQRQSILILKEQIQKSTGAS
UniProt Q8TB03: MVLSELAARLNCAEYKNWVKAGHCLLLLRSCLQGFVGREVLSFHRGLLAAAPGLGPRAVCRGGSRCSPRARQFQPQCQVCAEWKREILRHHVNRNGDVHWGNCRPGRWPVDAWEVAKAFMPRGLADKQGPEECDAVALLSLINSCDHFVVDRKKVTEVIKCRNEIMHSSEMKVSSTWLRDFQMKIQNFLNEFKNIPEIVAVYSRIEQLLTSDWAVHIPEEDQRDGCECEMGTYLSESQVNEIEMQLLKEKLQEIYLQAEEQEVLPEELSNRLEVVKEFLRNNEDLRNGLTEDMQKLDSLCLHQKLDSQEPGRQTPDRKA
UniProt Q9H8H2: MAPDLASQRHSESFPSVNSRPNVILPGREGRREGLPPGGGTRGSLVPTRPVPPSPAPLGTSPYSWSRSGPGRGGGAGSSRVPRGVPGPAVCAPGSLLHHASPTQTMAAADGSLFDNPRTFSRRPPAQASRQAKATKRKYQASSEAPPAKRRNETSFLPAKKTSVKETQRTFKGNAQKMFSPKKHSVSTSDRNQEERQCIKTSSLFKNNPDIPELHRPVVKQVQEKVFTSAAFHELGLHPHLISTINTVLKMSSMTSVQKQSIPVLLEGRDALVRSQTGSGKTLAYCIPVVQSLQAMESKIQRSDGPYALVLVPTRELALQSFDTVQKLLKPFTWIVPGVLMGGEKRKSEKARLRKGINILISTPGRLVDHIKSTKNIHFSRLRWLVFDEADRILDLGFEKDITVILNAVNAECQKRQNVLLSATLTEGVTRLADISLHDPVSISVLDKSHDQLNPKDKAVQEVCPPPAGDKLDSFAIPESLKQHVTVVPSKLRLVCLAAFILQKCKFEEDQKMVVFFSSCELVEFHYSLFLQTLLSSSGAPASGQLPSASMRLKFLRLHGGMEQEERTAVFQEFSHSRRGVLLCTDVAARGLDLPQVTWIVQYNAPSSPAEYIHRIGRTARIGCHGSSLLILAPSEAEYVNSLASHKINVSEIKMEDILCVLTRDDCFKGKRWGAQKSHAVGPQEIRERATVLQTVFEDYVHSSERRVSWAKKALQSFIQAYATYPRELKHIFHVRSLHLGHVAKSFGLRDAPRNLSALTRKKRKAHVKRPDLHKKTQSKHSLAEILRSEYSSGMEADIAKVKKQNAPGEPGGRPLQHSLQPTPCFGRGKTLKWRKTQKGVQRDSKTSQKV
UniProt Q8IUI8, 74-97: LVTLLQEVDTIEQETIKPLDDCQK
UniProt Q9NUI1: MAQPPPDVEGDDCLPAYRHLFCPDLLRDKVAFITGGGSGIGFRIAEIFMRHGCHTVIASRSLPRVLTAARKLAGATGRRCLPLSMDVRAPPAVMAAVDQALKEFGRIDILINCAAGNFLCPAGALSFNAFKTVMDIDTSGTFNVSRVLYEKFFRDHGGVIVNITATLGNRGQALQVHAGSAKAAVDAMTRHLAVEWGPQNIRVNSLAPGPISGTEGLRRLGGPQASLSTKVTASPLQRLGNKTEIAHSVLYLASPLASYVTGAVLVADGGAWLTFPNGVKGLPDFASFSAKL
UniProt Q14999: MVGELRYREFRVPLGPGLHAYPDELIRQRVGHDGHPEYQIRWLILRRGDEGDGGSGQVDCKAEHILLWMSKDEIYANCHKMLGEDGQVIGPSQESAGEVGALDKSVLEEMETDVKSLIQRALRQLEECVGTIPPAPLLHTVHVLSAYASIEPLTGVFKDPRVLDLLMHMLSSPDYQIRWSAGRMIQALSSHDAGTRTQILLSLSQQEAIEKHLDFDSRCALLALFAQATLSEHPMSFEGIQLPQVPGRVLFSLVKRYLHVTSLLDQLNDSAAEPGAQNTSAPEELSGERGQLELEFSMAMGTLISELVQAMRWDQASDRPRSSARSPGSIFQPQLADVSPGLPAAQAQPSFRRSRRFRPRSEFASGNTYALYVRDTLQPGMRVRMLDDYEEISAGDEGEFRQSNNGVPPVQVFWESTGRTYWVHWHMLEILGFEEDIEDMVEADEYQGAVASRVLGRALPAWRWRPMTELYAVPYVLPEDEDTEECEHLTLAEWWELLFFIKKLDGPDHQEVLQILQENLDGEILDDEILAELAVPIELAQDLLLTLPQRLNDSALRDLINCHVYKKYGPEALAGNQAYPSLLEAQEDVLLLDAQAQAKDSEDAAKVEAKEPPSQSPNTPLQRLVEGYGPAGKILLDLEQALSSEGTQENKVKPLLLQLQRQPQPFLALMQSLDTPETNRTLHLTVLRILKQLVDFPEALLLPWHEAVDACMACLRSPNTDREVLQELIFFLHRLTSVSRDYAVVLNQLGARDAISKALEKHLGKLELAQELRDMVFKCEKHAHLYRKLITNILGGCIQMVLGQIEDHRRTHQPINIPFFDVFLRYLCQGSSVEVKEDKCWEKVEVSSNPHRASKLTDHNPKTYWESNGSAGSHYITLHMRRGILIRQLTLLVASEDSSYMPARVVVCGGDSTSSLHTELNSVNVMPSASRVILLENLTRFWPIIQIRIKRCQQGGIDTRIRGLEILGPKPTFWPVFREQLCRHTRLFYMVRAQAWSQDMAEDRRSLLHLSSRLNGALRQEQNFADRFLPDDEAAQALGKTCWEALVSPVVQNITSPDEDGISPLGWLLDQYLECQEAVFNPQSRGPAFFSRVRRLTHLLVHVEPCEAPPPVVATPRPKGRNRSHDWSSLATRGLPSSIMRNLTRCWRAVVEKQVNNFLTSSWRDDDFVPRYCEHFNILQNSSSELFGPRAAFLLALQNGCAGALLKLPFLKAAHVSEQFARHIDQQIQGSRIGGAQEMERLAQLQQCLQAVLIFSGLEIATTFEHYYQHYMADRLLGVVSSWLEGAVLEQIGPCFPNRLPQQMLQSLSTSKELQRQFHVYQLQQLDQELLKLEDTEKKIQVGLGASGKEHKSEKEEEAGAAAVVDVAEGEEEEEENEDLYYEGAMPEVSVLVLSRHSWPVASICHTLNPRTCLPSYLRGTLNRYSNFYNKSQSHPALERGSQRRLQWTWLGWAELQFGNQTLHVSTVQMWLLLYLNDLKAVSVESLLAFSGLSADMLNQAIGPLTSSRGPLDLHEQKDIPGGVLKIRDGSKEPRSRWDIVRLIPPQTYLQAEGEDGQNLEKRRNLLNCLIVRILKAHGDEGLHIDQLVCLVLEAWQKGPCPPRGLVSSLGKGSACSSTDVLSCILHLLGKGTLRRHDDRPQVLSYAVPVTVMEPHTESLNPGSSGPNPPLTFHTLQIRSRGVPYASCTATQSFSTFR
UniProt Q7Z7A3: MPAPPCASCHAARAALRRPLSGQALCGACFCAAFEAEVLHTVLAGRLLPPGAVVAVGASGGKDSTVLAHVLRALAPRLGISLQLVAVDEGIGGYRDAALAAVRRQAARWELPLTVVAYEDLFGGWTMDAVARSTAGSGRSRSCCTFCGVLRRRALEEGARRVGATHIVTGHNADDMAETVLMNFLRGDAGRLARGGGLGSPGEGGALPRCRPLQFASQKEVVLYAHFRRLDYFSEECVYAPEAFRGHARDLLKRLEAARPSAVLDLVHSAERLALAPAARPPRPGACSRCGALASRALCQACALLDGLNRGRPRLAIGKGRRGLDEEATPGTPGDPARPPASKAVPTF
UniProt Q14247: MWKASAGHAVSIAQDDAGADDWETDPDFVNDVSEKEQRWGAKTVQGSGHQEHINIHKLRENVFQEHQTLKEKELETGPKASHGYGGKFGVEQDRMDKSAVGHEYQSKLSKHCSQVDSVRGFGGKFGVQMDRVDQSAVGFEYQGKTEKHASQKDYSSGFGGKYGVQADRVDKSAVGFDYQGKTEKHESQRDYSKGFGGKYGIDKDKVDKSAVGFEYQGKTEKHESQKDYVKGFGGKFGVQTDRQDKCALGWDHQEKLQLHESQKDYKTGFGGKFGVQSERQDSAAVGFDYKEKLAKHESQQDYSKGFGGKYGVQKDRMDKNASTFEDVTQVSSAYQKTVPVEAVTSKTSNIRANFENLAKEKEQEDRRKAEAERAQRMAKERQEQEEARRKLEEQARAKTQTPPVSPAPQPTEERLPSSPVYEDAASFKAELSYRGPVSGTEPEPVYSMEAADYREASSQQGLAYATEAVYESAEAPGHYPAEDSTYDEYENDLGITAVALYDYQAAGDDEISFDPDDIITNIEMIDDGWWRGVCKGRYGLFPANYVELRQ
UniProt Q9UJV9: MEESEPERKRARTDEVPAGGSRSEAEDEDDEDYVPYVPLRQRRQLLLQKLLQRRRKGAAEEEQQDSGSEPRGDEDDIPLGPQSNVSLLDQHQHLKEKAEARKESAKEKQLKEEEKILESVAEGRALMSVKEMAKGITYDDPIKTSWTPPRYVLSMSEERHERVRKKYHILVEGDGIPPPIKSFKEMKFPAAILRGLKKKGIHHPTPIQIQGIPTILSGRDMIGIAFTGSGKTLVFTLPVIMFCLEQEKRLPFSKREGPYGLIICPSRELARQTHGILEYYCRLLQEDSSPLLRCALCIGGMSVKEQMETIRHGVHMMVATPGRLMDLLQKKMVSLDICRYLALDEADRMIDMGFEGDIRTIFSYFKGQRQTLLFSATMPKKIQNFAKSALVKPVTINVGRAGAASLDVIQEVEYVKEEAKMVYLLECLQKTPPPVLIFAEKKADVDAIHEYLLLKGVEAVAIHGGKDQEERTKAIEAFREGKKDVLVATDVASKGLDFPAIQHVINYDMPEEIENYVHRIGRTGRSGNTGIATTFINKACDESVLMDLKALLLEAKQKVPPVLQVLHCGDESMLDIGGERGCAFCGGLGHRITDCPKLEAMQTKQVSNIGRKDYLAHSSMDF
UniProt Q9BTE1, whole entry, looked up: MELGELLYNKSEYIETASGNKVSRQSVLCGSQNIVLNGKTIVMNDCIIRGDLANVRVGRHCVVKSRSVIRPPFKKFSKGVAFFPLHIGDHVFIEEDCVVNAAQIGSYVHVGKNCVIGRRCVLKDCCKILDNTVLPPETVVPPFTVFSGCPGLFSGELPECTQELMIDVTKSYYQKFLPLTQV
UniProt P35659: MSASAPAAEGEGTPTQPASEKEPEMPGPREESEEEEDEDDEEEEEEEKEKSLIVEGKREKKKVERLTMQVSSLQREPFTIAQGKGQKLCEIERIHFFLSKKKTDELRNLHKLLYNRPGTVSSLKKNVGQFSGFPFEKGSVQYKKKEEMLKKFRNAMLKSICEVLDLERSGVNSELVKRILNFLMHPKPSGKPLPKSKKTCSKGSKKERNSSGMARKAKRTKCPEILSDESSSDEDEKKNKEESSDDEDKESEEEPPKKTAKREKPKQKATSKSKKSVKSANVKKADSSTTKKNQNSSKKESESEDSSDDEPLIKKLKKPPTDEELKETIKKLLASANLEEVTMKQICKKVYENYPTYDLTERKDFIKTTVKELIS

These targets were tested with ClCC(=O)N[C@H]1CCCc2ccccc12 (assay: log2 mean competition ratio of IA-DTB cysteine labelling (DMSO/compound) (log2 ratio); higher = stronger cysteine engagement by compound). Details: 50 µM; treatment time: 4 h; cell line lysate: HEK293T.
Description: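 IA-DTB competitive cysteine chemoproteomics in HEK293T RIPA lysate. Lysates were treated with compound 29 or 30 at 50 or 200 µM for 4 h, then IA-DTB (500 µM, 1 h), trypsin-digested, NeutrAvidin-enriched and analysed by diaPASEF. Competition ratio = intensity DMSO / intensity compound (n=4 treated, n=64 DMSO); binding: mean log2 CR ≥ 1 and p ≤ 0.05 plus QC filters. Target is the cysteine site.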

Row | Target | log2 mean competition ratio
1 | DCAF7 C256 (UniProt P61962) | -0.29
2 | CRELD2 C277 (UniProt Q6UXH1) | 0.56
3 | CWF19L1 C160 (UniProt Q69YN2) | 0.429
4 | DACH2 C68 | -0.0361
5 | CSTF2T C150 (UniProt Q9H0L4) | 0.381
6 | CTDP1 C95 (UniProt Q9Y5B0) | 0.521
7 | DDX59 C414 (UniProt Q5T1V6) | 0.201
8 | CXorf38 C161 (UniProt Q8TB03) | 0.425
9 | DDX50 C417 (UniProt Q9BQ39) | 0.013
10 | DDX31 C413 (UniProt Q9H8H2) | -0.056
11 | DECR1 C116 | 0.434
12 | CRLF3 C95 (UniProt Q8IUI8) | -0.0311
13 | CYP39A1 C461 | 0.156
14 | CYC1 C139 (UniProt P08574) | 0.136
15 | DECR2 C80 (UniProt Q9NUI1) | 0.298
16 | DDX46 C590 | -0.161
17 | CUL7 C828 (UniProt Q14999) | -0.433
18 | CYFIP1 C98 | -0.25
19 | CTTNBP2 C1225 | -0.175

Row | Target | log2 mean competition ratio
20 | CTR9 C1052 (UniProt Q6PD62) | -0.0301
21 | CS C101 | 0.293
22 | CSE1L C939 (UniProt P55060) | 0.217
23 | CRKL C44 (UniProt P46109) | 0.395
24 | CTU1 C290 (UniProt Q7Z7A3) | 0.025
25 | CTTN C246 (UniProt Q14247) | -0.135
26 | CRBN C287 (UniProt Q96SW2) | -0.244
27 | DARS2 C590 (UniProt Q6PI48) | 0.043
28 | DDX41 C540 (UniProt Q9UJV9) | -0.598
29 | DAB2IP C404 (UniProt Q5VWQ8) | -0.559
30 | DCAF5 C349 (UniProt Q96JK2) | -0.388
31 | CXorf38 C31 (UniProt Q8TB03) | -0.286
32 | DCTN5 C46 (UniProt Q9BTE1) | 0.0629
33 | DCP2 C140 (UniProt Q8IU60) | -0.185
34 | CREB5 C441 | 0.093
35 | DBNL C127 (UniProt Q9UJU6) | 0.0512
36 | CRYBG1 C541 | -0.265
37 | DEK C161 (UniProt P35659) | -0.15

Same assay, conditions: 200 µM; treatment time: 4 h; cell line lysate: HEK293T

Row | Target | log2 mean competition ratio
38 | DCAF7 C256 (UniProt P61962) | -0.139
39 | CRELD2 C277 (UniProt Q6UXH1) | 0.826
40 | CWF19L1 C160 (UniProt Q69YN2) | -0.0211
41 | DACH2 C68 | 0.442
42 | CSTF2T C150 (UniProt Q9H0L4) | -0.189
43 | CTDP1 C95 (UniProt Q9Y5B0) | 0.183
44 | DDX59 C414 (UniProt Q5T1V6) | -0.057
45 | CXorf38 C161 (UniProt Q8TB03) | 0.000594
46 | DDX50 C417 (UniProt Q9BQ39) | -0.04
47 | DDX31 C413 (UniProt Q9H8H2) | -0.0887
48 | DECR1 C116 | 0.186
49 | CRLF3 C95 (UniProt Q8IUI8) | -0.33
50 | CYP39A1 C461 | 0.334
51 | CYC1 C139 (UniProt P08574) | -0.0256
52 | DECR2 C80 (UniProt Q9NUI1) | 0.308
53 | DDX46 C590 | -0.297
54 | CUL7 C828 (UniProt Q14999) | -0.0333
55 | CYFIP1 C98 | -0.0655
56 | CTTNBP2 C1225 | 0.0622

Row | Target | log2 mean competition ratio
57 | CTR9 C1052 (UniProt Q6PD62) | -0.311
58 | CS C101 | 0.0337
59 | CSE1L C939 (UniProt P55060) | 0.0842
60 | CRKL C44 (UniProt P46109) | -0.0934
61 | CTU1 C290 (UniProt Q7Z7A3) | 0.0378
62 | CTTN C246 (UniProt Q14247) | -0.135
63 | CRBN C287 (UniProt Q96SW2) | 0.0457
64 | DARS2 C590 (UniProt Q6PI48) | -0.446
65 | DDX41 C540 (UniProt Q9UJV9) | -0.124
66 | DAB2IP C404 (UniProt Q5VWQ8) | -0.144
67 | DCAF5 C349 (UniProt Q96JK2) | -0.55
68 | CXorf38 C31 (UniProt Q8TB03) | -0.0517
69 | DCTN5 C46 (UniProt Q9BTE1) | -0.173
70 | DCP2 C140 (UniProt Q8IU60) | 0.116
71 | CREB5 C441 | 0.00926
72 | DBNL C127 (UniProt Q9UJU6) | -0.0739
73 | CRYBG1 C541 | -0.0978
74 | DEK C161 (UniProt P35659) | -0.0652
